According to article PMC9948614 (Frontiers in Molecular Biosciences, 2023):
For some assays here: End groups of sequences in plain letters are not given here.

Columns and labels:
MIA PaCa-2 = assay: Intracellular trafficking, co-localization with endocytosis and intracellular markers; type: cell-based, human
SK-MEL-28 = assay: as above; type: cell-based, human; conditions: SK-MEL-28, 488-C-ter 20 µM
[1] = general procedure: Fmoc solid-phase peptide synthesis; amide chemmatrix resin (0.33 mmol/g) or Fmoc-Asp(tBu)-wang-LLresin (0.33 mmol/g); HCTU/NMM; conditions: for isolated yield: whole synthesis, scale 0.01 mmol

Substance: EEQTHFHFESPKLIFKVQDYWILNDIMKKNLTGISLKSEEEDADSGEID [C-ter, Synthetic C-terminal domain of Amblyomin-X, fragment 58-106 with cysteine 67 mutated to Serine]
- Co-localization with late endosomal markers LysoTracker and LAMP-2 (MIA PaCa-2; 488-C-ter 20 µM, especially in MIA PaCa-2): found in the co-localization
- Co-localization with endocytosis markers (CTxB, TrF, dextran, cav-1) (MIA PaCa-2; MIA PaCa-2, 488-C-ter 20 µM): no pathway seems to be predominant
- Nuclear translocation (MIA PaCa-2; MIA PaCa-2, 488-C-ter 20 µM): nucleus is not the main fate
- Co-localization with endocytosis markers (CTxB, TrF, dextran, cav-1) (SK-MEL-28): preferentially co-localization with CTxB and cav-1
- Nuclear translocation (SK-MEL-28): nucleus is not the main fate

Substance: EEQTHFHFESPKLIFKVQDYWILNDIMKKNLTGISLKSEEEDADSGEID
- isolated yield [1]: 9%

Substance: ANSKAVCNLPKAGDETCSNKTEIRWYYNGTACEAFIFKGCGGNDNNFDRVDDCQRLC-NH2
- oxidative folding yield ([1]; oxidative folding step, several disulfide bridges, sequence written open): 75%
- isolated yield ([1]; several disulfide bridges, sequence written open): 13%
